According to the supplement of paper PMC5662767:
Counter-ions that a name gives are not always drawn. Some of the results follow. Plates or batches differ in their baseline, so values are only roughly comparable.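 A clonal Drosophila S2 line expresses Smoothened bearing circularly permuted GFP in its cytoplasmic tail; Hh-driven phosphorylation opens an inhibitory loop, making it fluoresce. Flow cytometry measured per-cell fluorescence, normalized to Hh-stimulated untreated cells. Hits were inhibitor groups with shared pathway targets that consistently shifted fluorescence, not individual compounds.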

Each molecule was assayed on Drosophila S2 cl14 SmoIP sensor cells (assay: normalized SmoIP GFP fluorescence (untreated unstimulated = 0%, untreated Hh-stimulated = 100%); higher = more Smo activation sensor fluorescence). Conditions: stimulation: mock conditioned medium (-Hh); compound concentration: 15 uM; 24 h.

Compound	normalized SmoIP GFP fluorescence [%]
C=C(C)[C@@H]1CC[C@]2(C(=O)O)CC[C@]3(C)[C@H](CC[C@@H]4[C@@]5(C)CC[C@H](O)C(C)(C)[C@@H]5CC[C@]43C)[C@@H]12 [betulinic-acid]	6.95
O=c1cc(N2CCOCC2)oc2c(-c3ccccc3)cccc12	1.35
Nc1nc(=O)n([C@@H]2CS[C@H](CO)O2)cc1F [Emtricitabine]	-11.7
CC1(C)CCC2=C(O1)c1ccccc1C(=O)C2=O [beta-lapachone]	63.3
O=C(C=Cc1ccccc1)NC(NC(=S)Nc1ccc(Cl)cc1)C(Cl)(Cl)Cl (configuration not stated)	1.57
CC/C(=C(\c1ccccc1)c1ccc(OCCN(C)C)cc1)c1ccccc1 [Tamoxifen-Citrate(Nolvadex)]	15.1
CCCC(CCC)C(=O)O [Sodium-valproate]	-7.81
C[N+]1(C)CCC(=C(c2ccccc2)c2ccccc2)CC1 [diphemanil-methylsulfate]	-4.13
CCc1c(O)cc(O)c(C(=O)c2ccc(OCCN3CCOCC3)c(OC)c2)c1CC(=O)N(CCOC)CCOC	13.8
CCCCc1oc2ccccc2c1C(=O)c1cc(I)c(OCCN(CC)CC)c(I)c1 [amiodarone-hcl]	30.4
CN(C)CCN(Cc1ccccc1)c1ccccn1 [tripelennamine-hydrochloride]	-0.264
Cc1c(Nc2ncccc2C(=O)O)cccc1C(F)(F)F [flunixin-meglumin]	-10.8
CCC(C)(Oc1ccc(C2(c3ccc(OC(C)(CC)C(=O)O)cc3)CCCCC2)cc1)C(=O)O (configuration not stated) [clinofibrate]	-12.6
Cn1cc(-c2ccc3nnc(C(F)(F)c4ccc5ncccc5c4)n3n2)cn1	9.86
CC(C)C[C@H](NC(=O)[C@H]1O[C@@H]1C(=O)O)C(=O)NCCCCN=C(N)N	40.2
Cc1cc(C)c2c(c1)[C@@H](N(Cc1cc(C(F)(F)F)cc(C(F)(F)F)c1)c1nnn(C)n1)CCCN2CC1CCC(C(=O)O)CC1 (some centres not stated)	13.7

Compound	normalized SmoIP GFP fluorescence [%]
CC(C)n1nc(-c2ccc3oc(N)nc3c2)c2c(N)ncnc21	60.9
NC(=O)c1ncn([C@@H]2O[C@H](CO)[C@@H](O)[C@H]2O)c1N [Acadesine]	-17.2
Cc1cc(OCc2nnc(SC3CCCC3)n2-c2cccnc2)ccc1-c1ccc(S(C)(=O)=O)cc1	42.1
CN(C)CCC=C1c2ccccc2CCc2ccccc21 [amitriptyline-hydrochloride]	18.3
Cc1ccc(C(=O)c2cc(O)c(O)c([N+](=O)[O-])c2)cc1 [tolcapone]	10.5
CC(C)c1cc(-c2ccc(F)c3ccccc23)nc(N)n1	-12.2
CCOC(=O)[C@H](CCc1ccccc1)N[C@@H](C)C(=O)N1[C@@H](C(=O)O)C[C@@H]2CCC[C@@H]21 [Ramipril(Altace)]	-17.5
C=C1C(=O)O[C@@H]2/C=C(\C)CC/C=C(\C)CC[C@@H]12 [Costunolide]	30
C/C=C1\[C@H]2C=C(C)C[C@]1(N)c1ccc(=O)[nH]c1C2 [(-)-Huperzine-A]	-17.2
COc1c(C)c(C(=O)c2ccc(N)c(C(=O)O)c2)n2ccccc12	4
Cc1cc2c(F)c(Oc3ncnn4cc(OC[C@@H](C)OC(=O)[C@H](C)N)c(C)c34)ccc2[nH]1 [Brivanib-alaninate]	40.6
N#Cc1c(Oc2ccc(F)c(NC(=O)Cc3cccc(C(F)(F)F)c3)c2)ccc2nc(NC(=O)C3CC3)sc12	15.5
CCOC(=O)c1ncn2c1CN(C)C(=O)c1cc(F)ccc1-2 [Flumazenil]	-2.64
CC(C)N(C[C@H]1O[C@@H](n2cnc3c(N)ncnc32)[C@H](O)[C@@H]1O)[C@H]1C[C@@H](CCc2nc3cc(C(C)(C)C)ccc3[nH]2)C1	1.95
COc1cc(Nc2ncc(F)c(Nc3ccc4c(n3)NC(=O)C(C)(C)O4)n2)cc(OC)c1OC	1.24
CO[C@H]1C[C@@H]2CC[C@@H](C)[C@@](O)(O2)C(=O)C(=O)N2CCCC[C@H]2C(=O)O[C@H]([C@H](C)C[C@@H]2CC[C@@H](OC(=O)C(C)(CO)CO)[C@H](OC)C2)CC(=O)[C@H](C)/C=C(\C)[C@@H](O)[C@@H](OC)C(=O)[C@H](C)C[C@H](C)/C=C/C=C/C=C/1C [Temsirolimus]	72.7

A draw from above in order of count of non-hydrogen atoms, smallest number first:
Compound	normalized SmoIP GFP fluorescence [%]
C=C1C(=O)O[C@@H]2/C=C(\C)CC/C=C(\C)CC[C@@H]12 [Costunolide]	30
C/C=C1\[C@H]2C=C(C)C[C@]1(N)c1ccc(=O)[nH]c1C2 [(-)-Huperzine-A]	-17.2
Cc1ccc(C(=O)c2cc(O)c(O)c([N+](=O)[O-])c2)cc1 [tolcapone]	10.5
COc1c(C)c(C(=O)c2ccc(N)c(C(=O)O)c2)n2ccccc12	4
Cc1cc2c(F)c(Oc3ncnn4cc(OC[C@@H](C)OC(=O)[C@H](C)N)c(C)c34)ccc2[nH]1 [Brivanib-alaninate]	40.6
COc1cc(Nc2ncc(F)c(Nc3ccc4c(n3)NC(=O)C(C)(C)O4)n2)cc(OC)c1OC	1.24
N#Cc1c(Oc2ccc(F)c(NC(=O)Cc3cccc(C(F)(F)F)c3)c2)ccc2nc(NC(=O)C3CC3)sc12	15.5
CC(C)N(C[C@H]1O[C@@H](n2cnc3c(N)ncnc32)[C@H](O)[C@@H]1O)[C@H]1C[C@@H](CCc2nc3cc(C(C)(C)C)ccc3[nH]2)C1	1.95
CO[C@H]1C[C@@H]2CC[C@@H](C)[C@@](O)(O2)C(=O)C(=O)N2CCCC[C@H]2C(=O)O[C@H]([C@H](C)C[C@@H]2CC[C@@H](OC(=O)C(C)(CO)CO)[C@H](OC)C2)CC(=O)[C@H](C)/C=C(\C)[C@@H](O)[C@@H](OC)C(=O)[C@H](C)C[C@H](C)/C=C/C=C/C=C/1C [Temsirolimus]	72.7
